# Cleaved PARP in drug-treated melanoma cells

Data from the primary screen of doi:10.1371/journal.pone.0140310, rounded.

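The test systems are human melanoma cell lines, treated with a pair of drugs for 72 h and then stained and imaged. The read-out is the fraction of cleaved-PARP-positive nuclei, in % of that fraction in the DMSO control; 200 means twice the control level of this apoptosis marker. Every drug was used at one fixed concentration, the higher of two screened. No replicate spread is given; individual values may be noisy. Basal and induced levels differ widely between cell lines.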 Only some of the drugs and lines screened are listed, without regard to their results.

All values are for the listed drug together with indole-3-carbinol (4 µM): OCc1c[nH]c2ccccc12

With Cn1cc(C2=C(c3cn(C4CCN(Cc5ccccn5)CC4)c4ccccc34)C(=O)NC2=O)c2ccccc21 at 4 µM the screen read COLO 800: 122; C32: 46.9; UACC-62: 243; A101D: 190; RVH-421: 105; IPC-298: 76.3.
With COCC[n+]1c2c(n(Cc3cnccn3)c1C)C(=O)c1ccccc1C2=O at 0.002 µM the screen read COLO 800: 254; C32: 105; UACC-62: 193; A101D: 164; RVH-421: 13.5; IPC-298: 359.
With O=C(O)C(=O)Nc1sc2c(c1C(=O)O)CCNC2 at 8.33 µM the screen read COLO 800: 68.9; C32: 181; UACC-62: 78.3; A101D: 56.6; RVH-421: 271; IPC-298: 40.0.
With Cc1nc(Nc2ncc(C(=O)Nc3c(C)cccc3Cl)s2)cc(N2CCN(CCO)CC2)n1 at 0.02 µM the screen read COLO 800: 271; C32: 588; UACC-62: 293; A101D: 84.4; RVH-421: 209; IPC-298: 198.
With Cc1cc([N+](=O)[O-])ccc1NS(=O)(=O)c1cc(Cl)ccc1Cl at 5 µM the screen read COLO 800: 140; C32: 88.9; UACC-62: 152; A101D: 144; RVH-421: 29.5; IPC-298: 968.
With CO[C@H]1C[C@@H]2CC[C@@H](C)[C@@](O)(O2)C(=O)C(=O)N2CCCC[C@H]2C(=O)O[C@H]([C@H](C)C[C@@H]2CC[C@@H](OCCO)[C@H](OC)C2)CC(=O)[C@H](C)/C=C(\C)[C@@H](O)[C@@H](OC)C(=O)[C@H](C)C[C@H](C)/C=C/C=C/C=C/1C at 0.1 µM the screen read COLO 800: 111; C32: 244; UACC-62: 292; A101D: 69.3; RVH-421: 44.9; IPC-298: 241.
With CC(C)(C)c1cnc(CSc2cnc(NC(=O)C3CCNCC3)s2)o1 at 0.05 µM the screen read COLO 800: 273; C32: 77.0; UACC-62: 115; A101D: 63.2; RVH-421: 104; IPC-298: 133.
With O=C(Nc1cccc(Cl)c1)Nc1ncc(CCNc2ncnc3ccsc23)s1 at 0.004 µM the screen read COLO 800: 162; C32: 76.4; UACC-62: 64.5; A101D: 194; RVH-421: 278; IPC-298: 26.7.
With Cn1c(Nc2ccc(C(F)(F)F)cc2)nc2cc(Oc3ccnc(-c4ncc(C(F)(F)F)[nH]4)c3)ccc21 at 0.4 µM the screen read COLO 800: 109; C32: 374; UACC-62: 291; A101D: 51.6; RVH-421: 455; IPC-298: 303.
With COc1ccc(C2=N[C@@H](c3ccc(Cl)cc3)[C@@H](c3ccc(Cl)cc3)N2C(=O)N2CCNC(=O)C2)c(OC(C)C)c1 at 0.5 µM the screen read COLO 800: 118; C32: 246; UACC-62: 183; A101D: 91.0; RVH-421: 117; IPC-298: 87.2.
With COc1ccc(COc2ccc(Cc3cnc(N)nc3N)cc2OC)cc1 at 5 µM the screen read COLO 800: 85.1; C32: 132; UACC-62: 119; A101D: 151; RVH-421: 141; IPC-298: 30.3.
With CC(=O)O[C@@]12CO[C@@H]1C[C@H](O)[C@@]1(C)C(=O)[C@H](O)C3=C(C)[C@@H](OC(=O)[C@H](O)[C@@H](NC(=O)OC(C)(C)C)c4ccccc4)C[C@@](O)([C@@H](OC(=O)c4ccccc4)[C@H]21)C3(C)C at 0.0005 µM the screen read COLO 800: 55.2; C32: 628; UACC-62: 310; A101D: 153; RVH-421: 177; IPC-298: 1520.
With C[C@@H]1CCN(C(=O)CC#N)C[C@@H]1N(C)c1ncnc2[nH]ccc12 at 5 µM the screen read COLO 800: 67.1; C32: 159; UACC-62: 76.4; A101D: 103; RVH-421: 236; IPC-298: 31.3.
With CC1(C)NC(=O)N(c2ccc([N+](=O)[O-])c(C(F)(F)F)c2)C1=O at 5 µM the screen read COLO 800: 41.6; C32: 77.1; UACC-62: 70.3; A101D: 96.9; RVH-421: 32.7; IPC-298: 190.
With Nc1cccc2c1CN(C1CCC(=O)NC1=O)C2=O (centres unmarked) at 5 µM the screen read COLO 800: 113; C32: 78.3; UACC-62: 186; A101D: 71.8; RVH-421: 43.3; IPC-298: 138.
With C[C@@H](Oc1cc(-c2cnn(C3CCNCC3)c2)cnc1N)c1c(Cl)ccc(F)c1Cl at 1 µM the screen read COLO 800: 80.3; C32: 292; UACC-62: 87.6; A101D: 84.8; RVH-421: 58.5; IPC-298: 273.
With CCCCCCCCc1ccc(CCC(N)(CO)CO)cc1 at 10 µM the screen read COLO 800: 125; C32: 985; UACC-62: 287; A101D: 1590; RVH-421: 4790; IPC-298: 160.
With N#Cc1c(O)c2c(-c3ccc(-c4ccccc4O)cc3)csc2[nH]c1=O at 10 µM the screen read COLO 800: 52.1; C32: 76.6; UACC-62: 144; A101D: 123; RVH-421: 89.2; IPC-298: 117.
With CN(NC(=O)CC(=O)NN(C)C(=S)c1ccccc1)C(=S)c1ccccc1 at 0.03 µM the screen read COLO 800: 183; C32: 4220; UACC-62: 93.8; A101D: 181; RVH-421: 40.9; IPC-298: 80.6.
With Cc1ccc(Nc2nccc(N(C)c3ccc4c(C)n(C)nc4c3)n2)cc1S(N)(=O)=O at 2 µM the screen read COLO 800: 90.8; C32: 131; UACC-62: 74.9; A101D: 137; RVH-421: 203; IPC-298: 87.4.
With O=C(/C=C/c1cccnc1)NCCCCC1CCN(C(=O)c2ccccc2)CC1 at 0.05 µM the screen read COLO 800: 135; C32: 157; UACC-62: 202; A101D: 82.3; RVH-421: 782; IPC-298: 1400.
With COc1ccc(-c2ccc3c(N4CCOCC4)nc(N4C[C@@H](C)O[C@@H](C)C4)nc3n2)cc1CO at 0.1 µM the screen read COLO 800: 233; C32: 83.5; UACC-62: 207; A101D: 178; RVH-421: 113; IPC-298: 57.1.
With Cn1cncc1[C@@](N)(c1ccc(Cl)cc1)c1ccc2c(c1)c(-c1cccc(Cl)c1)cc(=O)n2C at 0.05 µM the screen read COLO 800: 110; C32: 99.0; UACC-62: 131; A101D: 69.3; RVH-421: 78.8; IPC-298: 154.
With C[C@]1(c2nc3c(C(N)=O)cccc3[nH]2)CCCN1 at 7 µM the screen read COLO 800: 80.5; C32: 190; UACC-62: 92.0; A101D: 68.6; RVH-421: 106; IPC-298: 193.
With C=CCn1c(=O)c2cnc(Nc3ccc(N4CCN(C)CC4)cc3)nc2n1-c1cccc(C(C)(C)O)n1 at 0.1 µM the screen read COLO 800: 219; C32: 159; UACC-62: 150; A101D: 91.9; RVH-421: 56.6; IPC-298: 72.0.
With O=C(Nc1ccccc1)c1cc([N+](=O)[O-])ccc1Cl at 10 µM the screen read COLO 800: 46.9; C32: 102; UACC-62: 289; A101D: 217; RVH-421: 127; IPC-298: 36.8.

For reference, 2 entries once more:

Second drug	COLO 800	C32	UACC-62	A101D	RVH-421	IPC-298
O=C(Nc1ccccc1)c1cc([N+](=O)[O-])ccc1Cl at 10 µM	46.9	102	289	217	127	36.8
C[C@]1(c2nc3c(C(N)=O)cccc3[nH]2)CCCN1 at 7 µM	80.5	190	92.0	68.6	106	193